This note sets out measurements from PMC7734590, “Identification of a Selective RelA Inhibitor Based on DSE-FRET Screening Methods” (International Journal of Molecular Sciences, 2020).

Protein sequences, listed by entry. Tags and fused reporters are not part of them. Residues count along the entry.
UniProt Q04206, 19-306 limits assumed: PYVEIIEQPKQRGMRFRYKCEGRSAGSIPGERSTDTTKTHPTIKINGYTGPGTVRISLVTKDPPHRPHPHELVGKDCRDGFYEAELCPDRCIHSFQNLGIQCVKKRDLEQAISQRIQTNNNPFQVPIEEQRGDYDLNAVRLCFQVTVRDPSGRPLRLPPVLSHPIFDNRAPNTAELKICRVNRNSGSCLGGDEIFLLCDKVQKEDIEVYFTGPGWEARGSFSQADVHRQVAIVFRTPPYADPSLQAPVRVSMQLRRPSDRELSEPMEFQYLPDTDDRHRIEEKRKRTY

The target of assay [1] is RelA (Homo sapiens, UniProt Q04206). The assay is described as follows: DSE-FRET RelA–DNA binding inhibition. It counts as biochemical.
In assay [2] the target is T1, p52 (Homo sapiens, UniProt Q00653).
T1 sequence (Q00653 1-454 limits assumed): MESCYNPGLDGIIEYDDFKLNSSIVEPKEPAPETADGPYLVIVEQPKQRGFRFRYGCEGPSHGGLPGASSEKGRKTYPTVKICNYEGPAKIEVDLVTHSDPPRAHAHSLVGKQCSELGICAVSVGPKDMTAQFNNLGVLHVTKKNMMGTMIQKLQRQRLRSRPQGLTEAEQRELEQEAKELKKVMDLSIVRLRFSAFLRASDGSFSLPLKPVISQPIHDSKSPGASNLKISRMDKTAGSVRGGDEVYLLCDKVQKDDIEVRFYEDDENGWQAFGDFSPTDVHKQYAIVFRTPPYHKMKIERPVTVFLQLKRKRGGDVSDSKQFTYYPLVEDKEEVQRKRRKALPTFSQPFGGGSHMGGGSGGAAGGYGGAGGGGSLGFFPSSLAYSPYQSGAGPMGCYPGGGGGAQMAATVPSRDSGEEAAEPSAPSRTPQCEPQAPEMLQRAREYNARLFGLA
Description: DSE-FRET p52–DNA binding inhibition. It counts as biochemical.

Where two headings read alike, the source gives them in different places.

One may read the inhibition as the drop in the measured response relative to a control, in per cent. Regarding `COc1ccc(-n2nc(C(F)(F)F)cc2-c2ccc(Cl)cc2)cc1` [SC 560], the inhibition at 10 µM in assay [1] (read-out: Kinetic assay @ 10 µM RelA % Inhibition ΔRFU(60 min-0 min)) is -1.21%; in assay [1] (read-out: RelA HTS % Inhibition @ 10 µM), 43.7%; in assay [1] (read-out: RelA Retest % Inhibition @ 10 µM Avg.) it was -0.562%; in assay [1] (read-out: RelA Retest % Inhibition @ 10 µM Run1) it was -1.2%; in assay [1] (read-out: RelA Retest % Inhibition @ 10 µM Run2), 0.0409%; in assay [2] (read-out: Kinetic assay @ 10 µM p52 % Inhibition ΔRFU(60 min-0 min)) it was -1.45%. The inhibition at 10 µM in assay [2] (read-out: p52 HTS % Inhibition @ 10 µM) is -0.6%; in assay [2] (read-out: p52 Retest % Inhibition @ 10 µM Avg.), 0.372%; in assay [2] (read-out: p52 Retest % Inhibition @ 10 µM Run1) it was -0.437%; in assay [2] (read-out: p52 Retest % Inhibition @ 10 µM Run2) it was 1.2%.
